{"source": "paper PMC3879318", "binders": {"B1": {"name": "His-tagged necdin (protein, UniProt P25233 1-325)", "chain": "MSEQSKDLSDPNFAAEVPDCEMQDSDAVPVGIPPPASLAANLAGPPCAPEGPMAAQQASPPPEERIEDVDPKILQQAAEEGRAHQPQSPARPIPAPPAPAQLVQKAHELMWYVLVKDQKRMVLWFPDMVKEVMGSYKKWCRSILRRTSVILARVFGLHLRLTNLHTMEFALVKALSPEELDRVALNNRMPMTGLLLMILSLIYVKGRGAREGAVWNVLRILGLRPWKKHSTFGDVRKIITEEFVQQNYLKYQRVPHIEPPEYEFFWGSRANREITKMQIMEFLARVFKKDPQAWPSRYREALEQARALREANLAAQAPRSSVSED"}}, "biological_target": "GST-Bmi1 C-terminal deletion mutant (ΔCT) (mouse)", "test": "pull-down; GST-Bmi1 fusions immobilized on glutathione Sepharose 4B incubated with His-tagged necdin (200 ng) at 4°C for 2 hrs in 1 ml of 50 mM Tris buffer pH 8.0, 300 mM KCl, 2 mM 2-mercaptoethanol; bound His-necdin detected by Western blotting; both purified", "note": "These are yes or no findings as the source states them, for the method shown. A result given as binding can be weak or reduced; the word gives no strength. Where a sequence is shown, tags or fusion partners need not be part of it."}
{"binder": "B1", "values": [{"measurement": "binding", "value": "binds"}]}
